Some of the results follow. Repeats are few or missing, and single values can be far off.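 The apoptosis fraction was the count of cleaved-PARP antibody-stained nuclei relative to all DNA-stained nuclei, imaged in 1,536-well plates. Screening doses were set so most cells survived, and baseline and induced cleaved-PARP levels vary greatly across cell lines.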
Tests used:
Experiment in all cases: cleaved PARP positive nuclei fraction relative to DMSO control; melanoma cells; higher = more apoptosis
Details in all cases: library dose: low library concentration; 72 h
MZ2-MEL = system: MZ2-MEL
MeWo = system: MeWo
RPMI7951 = system: RPMI7951
RVH-421 = system: RVH-421
SkMel28 = system: SkMel28
SkMel2 = system: SkMel2
SkMel30 = system: SkMel30
UACC62 = system: UACC62
WM115 = system: WM115
WM1716 = system: WM1716
WM1745 = system: WM1745
WM3526 = system: WM3526
WM3619 = system: WM3619
WM451Lu = system: WM451Lu

SMILES	cleaved PARP positive nuclei fraction (MZ2-MEL) [%]	cleaved PARP positive nuclei fraction (MeWo) [%]	cleaved PARP positive nuclei fraction (RPMI7951) [%]	cleaved PARP positive nuclei fraction (RVH-421) [%]	cleaved PARP positive nuclei fraction (SkMel28) [%]	cleaved PARP positive nuclei fraction (SkMel2) [%]	cleaved PARP positive nuclei fraction (SkMel30) [%]	cleaved PARP positive nuclei fraction (UACC62) [%]	cleaved PARP positive nuclei fraction (WM115) [%]	cleaved PARP positive nuclei fraction (WM1716) [%]	cleaved PARP positive nuclei fraction (WM1745) [%]	cleaved PARP positive nuclei fraction (WM3526) [%]	cleaved PARP positive nuclei fraction (WM3619) [%]	cleaved PARP positive nuclei fraction (WM451Lu) [%]
CCCCCCCCCCCCCCCCCCOP(=O)([O-])OC1CC[N+](C)(C)CC1 [Perifosine] + Cn1nnc2c(C(N)=O)ncn2c1=O [temozolomide] (first compound 0.4 µM, partner dose 2 µM)	93.7	50.8	53.6	57	199	50.1	53.2	165	24.3	39	81.6	40.8	95.5	93.6
O=c1[nH]nc(Sc2ncc([N+](=O)[O-])s2)n1-c1ccc2c(c1)OCCO2 + Clc1ccc(Nc2nnc(Cc3ccncc3)c3ccccc23)cc1 [vatalanib] (first compound 0.2 µM, partner dose 2 µM)	26.5	129	106	66.5	90.9	97.2	66.4	244	141	77.6	106	95.6	101	70
Cc1ccc(Nc2nccc(N(C)c3ccc4c(C)n(C)nc4c3)n2)cc1S(N)(=O)=O [Pazopanib] + CCN(CC)CCNC(=O)c1c(C)[nH]c(/C=C2\C(=O)Nc3ccc(F)cc32)c1C [sunitinib] (first compound 0.4 µM, partner dose 0.4 µM)	140	90.1	90	22.9	74.2	71.6	22.4	38.9	112	55.2	92.8	95	92.4	275
O=C(Nc1cc(C(F)(F)F)cc(C(F)(F)F)c1)c1cc(Cl)ccc1O + CNC(=O)c1cc(Oc2ccc(NC(=O)Nc3ccc(Cl)c(C(F)(F)F)c3)cc2)ccn1 [sorafenib] (first compound 0.016 µM, partner dose 0.4 µM)	37.7	110	53.7	194	286	37.5	126	211	72.2	111	82.6	30.5	96.8	43.7
CCCCCCCCCCCCCCCCCCOP(=O)([O-])OC1CC[N+](C)(C)CC1 [Perifosine] + O=C(/C=C/c1cccnc1)NCCCCC1CCN(C(=O)c2ccccc2)CC1 [FK866] (first compound 0.4 µM, partner dose 0.01 µM)	416	164	67.3	50.4	162	1250	21.8	268	134	153	91.4	55.1	108	164
N#CC[C@H](C1CCCC1)n1cc(-c2ncnc3[nH]ccc23)cn1 [ruxolitinib] + Cn1nnc2c(C(N)=O)ncn2c1=O [temozolomide] (first compound 1 µM, partner dose 2 µM)	101	197	95.2	89.5	80.3	154	44	84.4	131	75.9	102	40	85	28.1
CCCCCCCCCCCCCCCCCCOP(=O)([O-])OC1CC[N+](C)(C)CC1 [Perifosine] + CS(=O)(=O)CCNCc1ccc(-c2ccc3ncnc(Nc4ccc(OCc5cccc(F)c5)c(Cl)c4)c3c2)o1 [lapatinib] (first compound 0.4 µM, partner dose 0.8 µM)	97	93.5	69.9	53.7	38.2	30.8	70	105	136	176	105	32	91.1	95.1
N#CC[C@H](C1CCCC1)n1cc(-c2ncnc3[nH]ccc23)cn1 [ruxolitinib] + Cn1cnc2c(F)c(Nc3ccc(Br)cc3Cl)c(C(=O)NOCCO)cc21 [selumetinib] (first compound 1 µM, partner dose 0.015 µM)	228	155	88	164	66.5	119	40.8	90.4	13	204	100	51.3	103	81.1
Cc1cn(-c2cc(NC(=O)c3ccc(C)c(Nc4nccc(-c5cccnc5)n4)c3)cc(C(F)(F)F)c2)cn1 [nilotinib] + Cc1nc(Nc2ncc(C(=O)Nc3c(C)cccc3Cl)s2)cc(N2CCN(CCO)CC2)n1 [dasatanib] (first compound 0.2 µM, partner dose 0.004 µM)	81.7	87.6	142	246	195	70.1	98.1	104	98.8	70.2	123	83.9	90	91
O=C(Nc1cc(C(F)(F)F)cc(C(F)(F)F)c1)c1cc(Cl)ccc1O + O=c1[nH]nc(Sc2ncc([N+](=O)[O-])s2)n1-c1ccc2c(c1)OCCO2 [BI78D3] (first compound 0.016 µM, partner dose 0.2 µM)	90.8	91.3	148	82.2	163	91.9	83.6	162	139	801	96	80.7	96.3	103
Cc1ccc(Nc2nccc(N(C)c3ccc4c(C)n(C)nc4c3)n2)cc1S(N)(=O)=O [Pazopanib] + CCCS(=O)(=O)Nc1ccc(F)c(C(=O)c2c[nH]c3ncc(Cl)cc23)c1F [PLX4720] (first compound 0.4 µM, partner dose 0.08 µM)	102	71.3	109	147	77.2	58.8	67.1	62.5	30.7	275	111	74.9	77.8	39.6
CCCCCCCCCCCCCCCCCCOP(=O)([O-])OC1CC[N+](C)(C)CC1 [Perifosine] + CCN(CC)CCNC(=O)c1c(C)[nH]c(/C=C2\C(=O)Nc3ccc(F)cc32)c1C [sunitinib] (first compound 0.4 µM, partner dose 0.4 µM)	85.3	138	137	304	60.8	56.9	93.7	165	211	79.1	98.6	218	149	62.1
O=C(Nc1cc(C(F)(F)F)cc(C(F)(F)F)c1)c1cc(Cl)ccc1O + C[C@@H](Oc1cc(-c2cnn(C3CCNCC3)c2)cnc1N)c1c(Cl)ccc(F)c1Cl [Crizotinib] (first compound 0.016 µM, partner dose 0.2 µM)	64.2	32.5	23.6	64.1	20.3	161	79.6	111	89	44.9	86.4	79.4	87.6	51.6
COc1cc([C@@H]2c3cc4c(cc3[C@@H](O[C@@H]3O[C@@H]5CO[C@@H](C)O[C@H]5[C@H](O)[C@H]3O)[C@H]3COC(=O)[C@H]23)OCO4)cc(OC)c1O [etoposide] + CCN(CC)CCNC(=O)c1c(C)[nH]c(/C=C2\C(=O)Nc3ccc(F)cc32)c1C [sunitinib] (first compound 0.02 µM, partner dose 0.4 µM)	22.2	33.6	168	65.2	79.7	116	101	278	73.2	81.6	96.6	167	83.9	53.2
CC[C@]1(O)C[C@H]2CN(CCc3c([nH]c4ccccc34)[C@@](C(=O)OC)(c3cc4c(cc3OC)N(C=O)[C@H]3[C@@](O)(C(=O)OC)[C@H](OC(C)=O)[C@]5(CC)C=CCN6CC[C@]43[C@@H]65)C2)C1 [vincristine] + NC1(c2ccc(-c3nc4ccn5c(=O)[nH]nc5c4cc3-c3ccccc3)cc2)CCC1 [MK2206] (first compound 0.0001 µM, partner dose 0.4 µM)	115	156	113	133	160	92.9	516	366	1120	118	111	98.9	204	89.6
CC[C@]1(O)C[C@H]2CN(CCc3c([nH]c4ccccc34)[C@@](C(=O)OC)(c3cc4c(cc3OC)N(C=O)[C@H]3[C@@](O)(C(=O)OC)[C@H](OC(C)=O)[C@]5(CC)C=CCN6CC[C@]43[C@@H]65)C2)C1 [vincristine] + CCN(CC)CCNC(=O)c1c(C)[nH]c(/C=C2\C(=O)Nc3ccc(F)cc32)c1C [sunitinib] (first compound 0.0001 µM, partner dose 0.4 µM)	89.2	90.6	112	114	76.5	69.2	175	90.3	238	45.6	109	60.5	86.1	72.6
Cc1cn(-c2cc(NC(=O)c3ccc(C)c(Nc4nccc(-c5cccnc5)n4)c3)cc(C(F)(F)F)c2)cn1 [nilotinib] + C[C@]1(c2nc3c(C(N)=O)cccc3[nH]2)CCCN1 [Veliparib] (first compound 0.2 µM, partner dose 1.4 µM)	56.4	91.8	56.5	100	83.8	28.1	94.1	112	92.2	141	131	103	193	90
Cc1cn(-c2cc(NC(=O)c3ccc(C)c(Nc4nccc(-c5cccnc5)n4)c3)cc(C(F)(F)F)c2)cn1 [nilotinib] + C[C@]1(O)C[C@@H](c2nc(-c3ccc4ccc(-c5ccccc5)nc4c3)c3c(N)nccn32)C1 [OSI906] (first compound 0.2 µM, partner dose 0.4 µM)	78.8	85.5	54.7	71.7	95.2	160	112	47.7	164	83	164	63.8	101	62.5

Shown as comma-separated lines: entries from further up
SMILES,cleaved PARP positive nuclei fraction (MZ2-MEL) [%],cleaved PARP positive nuclei fraction (MeWo) [%],cleaved PARP positive nuclei fraction (RPMI7951) [%],cleaved PARP positive nuclei fraction (RVH-421) [%],cleaved PARP positive nuclei fraction (SkMel28) [%],cleaved PARP positive nuclei fraction (SkMel2) [%],cleaved PARP positive nuclei fraction (SkMel30) [%],cleaved PARP positive nuclei fraction (UACC62) [%],cleaved PARP positive nuclei fraction (WM115) [%],cleaved PARP positive nuclei fraction (WM1716) [%],cleaved PARP positive nuclei fraction (WM1745) [%],cleaved PARP positive nuclei fraction (WM3526) [%],cleaved PARP positive nuclei fraction (WM3619) [%],cleaved PARP positive nuclei fraction (WM451Lu) [%]
"O=C(Nc1cc(C(F)(F)F)cc(C(F)(F)F)c1)c1cc(Cl)ccc1O + O=c1[nH]nc(Sc2ncc([N+](=O)[O-])s2)n1-c1ccc2c(c1)OCCO2 [BI78D3] (first compound 0.016 µM, partner dose 0.2 µM)",90.8,91.3,148,82.2,163,91.9,83.6,162,139,801,96,80.7,96.3,103
"Cc1ccc(Nc2nccc(N(C)c3ccc4c(C)n(C)nc4c3)n2)cc1S(N)(=O)=O [Pazopanib] + CCCS(=O)(=O)Nc1ccc(F)c(C(=O)c2c[nH]c3ncc(Cl)cc23)c1F [PLX4720] (first compound 0.4 µM, partner dose 0.08 µM)",102,71.3,109,147,77.2,58.8,67.1,62.5,30.7,275,111,74.9,77.8,39.6
"CCCCCCCCCCCCCCCCCCOP(=O)([O-])OC1CC[N+](C)(C)CC1 [Perifosine] + CCN(CC)CCNC(=O)c1c(C)[nH]c(/C=C2\C(=O)Nc3ccc(F)cc32)c1C [sunitinib] (first compound 0.4 µM, partner dose 0.4 µM)",85.3,138,137,304,60.8,56.9,93.7,165,211,79.1,98.6,218,149,62.1
"O=C(Nc1cc(C(F)(F)F)cc(C(F)(F)F)c1)c1cc(Cl)ccc1O + C[C@@H](Oc1cc(-c2cnn(C3CCNCC3)c2)cnc1N)c1c(Cl)ccc(F)c1Cl [Crizotinib] (first compound 0.016 µM, partner dose 0.2 µM)",64.2,32.5,23.6,64.1,20.3,161,79.6,111,89,44.9,86.4,79.4,87.6,51.6

Reference: the supplement of paper PMC4604168 (melanoma cell lines)
